PubChem BioAssay AID248 (DTP/NCI, 2004)
The list shows only some results of the screen, not a fair sample: it gathers tests that were run many times, whatever their T/C, doses with no T/C, and many T/C values between a quarter and a half above the control. Further doses and runs are listed elsewhere. T/C is the treated group as % of the vehicle group. Some doses have a count of surviving animals in place of a T/C: the source holds a T/C of zero for them, seemingly a mark for toxic or unscored doses. Some doses without a T/C left all or most animals alive at the check, yet need not have been tolerated: the source hardly ever lists a survival T/C far under the control, and the zero likely stands for such cases as well. Survivors were counted at the toxicity check, usually on the fifth day, unless a day is given; later deaths do not show. Schedule codes are those of the source, taken here to give the interval after Q, in days (D) or hours (H), and the number of doses after X. Some entries hold several experiments; the results are listed from low to high. Some schedules carry Z or #; the key to these is not given. Signs of the kind (2×) give the number of equal values in this list. For survival time, the PubChem record calls one and a half times the control and up active, and a quarter to a half above the control has no call in these data; cut-offs in other NCI protocols can differ.

System: L1210 leukemia ip in BDF1 mice, survival T/C
Assay: NCI In Vivo Anticancer Drug Screen. Data for tumor model L1210 Leukemia (intraperitoneal) in B6D2F1 (BDF1) mice
Details: T/C endpoint: mean survival time, higher T/C = longer survival
[1] = dose: 200.0 mg/kg/injection, schedule: Q01DX009 (ip), vehicle: saline with Tween-80
[2] = dose: 400.0 mg/kg/injection, schedule: Q01DX001 (ip), vehicle: saline
[3] = dose: 600.0 mg/kg/injection, schedule: Q01DX001 (ip), vehicle: saline
[4] = dose: 400.0 mg/kg/injection, schedule: Q01DX009 (ip), vehicle: saline with Tween-80
[5] = dose: 50.0 mg/kg/injection, schedule: Q01DX009 (ip), vehicle: other

With `Cc1ccc(C(=O)[O][Hg][CH2]C2COC([CH2][Hg][O]C(=O)c3ccc(C)cc3)CO2)cc1` (stereo not given) the survivor count (dose: 25.0 mg/kg/injection, schedule: Q01DX009 (ip), vehicle: Klucel (hydroxypropylcellulose) (HPC)) was 6 of 6, the survivor count (dose: 50.0 mg/kg/injection, schedule: Q01DX009 (ip), vehicle: Klucel (hydroxypropylcellulose) (HPC)) was 5 of 6 and the survivor count (dose: 100.0 mg/kg/injection, schedule: Q01DX009 (ip), vehicle: Klucel (hydroxypropylcellulose) (HPC)) was 6 of 6. For the same molecule, the survivor count (dose: 100.0 mg/kg/injection, schedule: Q04DX003 (ip), vehicle: Klucel (hydroxypropylcellulose) (HPC)) was 5 of 6, the survivor count (dose: 150.0 mg/kg/injection, schedule: Q04DX003 (ip), vehicle: Klucel (hydroxypropylcellulose) (HPC)) was 1 of 6 and the survivor count (dose: 200.0 mg/kg/injection, schedule: Q04DX003 (ip), vehicle: Klucel (hydroxypropylcellulose) (HPC)) was 0 of 6. For the same molecule, the survivor count (dose: 225.0 mg/kg/injection, schedule: Q04DX003 (ip), vehicle: Klucel (hydroxypropylcellulose) (HPC)) was 0 of 6, the survivor count (dose: 335.0 mg/kg/injection, schedule: Q04DX003 (ip), vehicle: Klucel (hydroxypropylcellulose) (HPC)) was 0 of 6 and the survivor count (dose: 400.0 mg/kg/injection, schedule: Q04DX003 (ip), vehicle: Klucel (hydroxypropylcellulose) (HPC)) was 0 of 6.

For `CN=C(NCCCOC)c1ccc(NC(=O)c2ccc(C(=O)Nc3ccc(C(=NC)NCCCOC)cc3)c([N+](=O)[O-])c2)cc1`, the survivor count (dose: 15.0 mg/kg/injection, schedule: Q01DX Z (ip), vehicle: saline) was 6 of 6, the survivor count (dose: 30.0 mg/kg/injection, schedule: Q01DX Z (ip), vehicle: saline) was 0 of 6 and the survivor count (dose: 60.0 mg/kg/injection, schedule: Q01DX Z (ip), vehicle: saline) was 0 of 6. For the same molecule, the survivor count (dose: 120.0 mg/kg/injection, schedule: Q01DX Z (ip), vehicle: saline) was 0 of 6.

With `O=NN(CCF)C(=O)NC1CCC(C(=O)O)CC1` (stereo not given) the T/C (dose: 6.0 mg/kg/injection, schedule: Q01DX001 (ip), vehicle: saline with Tween-80) was 125 % of control, the T/C (dose: 13.0 mg/kg/injection, schedule: Q01DX001 (ip), vehicle: saline with Tween-80) was 133 % of control and the T/C (dose: 20.0 mg/kg/injection, schedule: Q01DX001 (ip), vehicle: saline with Tween-80) was 148 % of control. For the same molecule, the survivor count (dose: 66.0 mg/kg/injection, schedule: Q01DX001 (ip), vehicle: saline with Tween-80) was 1 of 6 and the survivor count (dose: 100.0 mg/kg/injection, schedule: Q01DX001 (ip), vehicle: saline with Tween-80) was 0 of 6 (2×).

With `Cc1ccc(NCC(O)CN2CCOCC2)cc1` (stereo not given) the survivor count (dose: 25.0 mg/kg/injection, schedule: Q04DX003 (ip), vehicle: saline) was 6 of 6, the survivor count (dose: 50.0 mg/kg/injection, schedule: Q04DX003 (ip), vehicle: saline) was 4 of 6 and the survivor count (dose: 100.0 mg/kg/injection, schedule: Q04DX003 (ip), vehicle: saline) was 0 of 6. For the same molecule, the survivor count (dose: 200.0 mg/kg/injection, schedule: Q01DX001 (ip), vehicle: other) was 2 of 6 and the survivor count (dose: 400.0 mg/kg/injection, schedule: Q01DX001 (ip), vehicle: other) was 0 of 6.

With `CC1(C)SC(C(NC(=O)Cc2ccccc2)C(=O)O)NC1C(=O)O` (stereo not given) the survivor count [1] was 6 of 6.

In the case of `O=[N+]([O-])c1ccc(C[N+]23CCN(CC2)CC3)cc1`, the survivor count [1] is reported as 2 of 6.

With `CC(C)CN(C)N=Nc1ccc(C(=N)N)cc1` the survivor count (dose: 200.0 mg/kg/injection, schedule: Q01DX001 (ip), vehicle: carboxymethylcellulose (CMC)) was 1 of 6 and the survivor count (dose: 400.0 mg/kg/injection, schedule: Q01DX001 (ip), vehicle: carboxymethylcellulose (CMC)) was 0 of 6.

In the case of `CCOP(=O)(N1CC1(C)C)N1CC1(C)C` (stereo not given), the T/C (dose: 8.8 mg/kg/injection, schedule: Q01DX009 (ip), vehicle: saline) is reported as 143 % of control, the survivor count (dose: 12.5 mg/kg/injection, schedule: Q01DX001 (ip), vehicle: other) is reported as 0 of 6 and the T/C (dose: 13.3 mg/kg/injection, schedule: Q01DX009 (ip), vehicle: saline) is reported as 146 % of control. For the same molecule, the T/C (dose: 35.0 mg/kg/injection, schedule: Q01DX001 (ip), vehicle: saline) was 138 % of control, the survivor count (dose: 53.0 mg/kg/injection, schedule: Q01DX001 (ip), vehicle: alcohol) was 0 of 6 and the T/C (dose: 53.0 mg/kg/injection, schedule: Q01DX001 (ip), vehicle: other) was 138 % of control. The T/C (dose: 53.0 mg/kg/injection, schedule: Q01DX009 (ip), vehicle: saline) was 143 % of control, the survivor count (dose: 80.0 mg/kg/injection, schedule: Q01DX001 (ip), vehicle: alcohol) was 0 of 6 and the T/C (dose: 80.0 mg/kg/injection, schedule: Q01DX009 (ip), vehicle: Klucel (hydroxypropylcellulose) (HPC)) was 126 % of control. For the same molecule, the survivor count (dose: 120.0 mg/kg/injection, schedule: Q01DX001 (ip), vehicle: alcohol) was 0 of 6, the survivor count (dose: 120.0 mg/kg/injection, schedule: Q01DX009 (ip), vehicle: Klucel (hydroxypropylcellulose) (HPC)) was 6 of 6 and the survivor count (dose: 120.0 mg/kg/injection, schedule: Q01DX009 (ip), vehicle: saline) was 5 of 6. For the same molecule, the survivor count (dose: 180.0 mg/kg/injection, schedule: Q01DX001 (ip), vehicle: alcohol) was 0 of 6, the survivor count (dose: 180.0 mg/kg/injection, schedule: Q01DX009 (ip), vehicle: Klucel (hydroxypropylcellulose) (HPC)) was 6 of 6 and the survivor count (dose: 180.0 mg/kg/injection, schedule: Q01DX009 (ip), vehicle: saline) was 0 of 6. For the same molecule, the survivor count (dose: 266.0 mg/kg/injection, schedule: Q01DX001 (ip), vehicle: saline) was 3 of 6, the survivor count [2] was 2 of 6 and the survivor count [3] was 0 of 6. The survivor count (dose: 800.0 mg/kg/injection, schedule: Q01DX001 (ip), vehicle: other) was 6 of 6.

In the case of `O=C1C(Cl)=C(Cl)C(=O)N1c1ccc(Cl)c(Cl)c1`, the survivor count [4] is reported as 1 of 6.

For `CN1CCN(C(=O)Nc2cccc(F)c2)CC1`, the survivor count [1] was 6 of 6 and the survivor count [4] was 0 of 6.

For `C=CCCCCCCCCC(=O)N/N=C/c1ccc(NC(C)=O)cc1`, the survivor count (dose: 50.0 mg/kg/injection, schedule: Q01DX001 (ip), vehicle: other) was 6 of 6, the T/C [5] was 88 % of control and the survivor count [5] was 2 of 3, 3 of 3, 6 of 6. The survivor count (dose: 100.0 mg/kg/injection, schedule: Q01DX009 (ip), vehicle: carboxymethylcellulose (CMC)) was 3 of 3, the survivor count (dose: 100.0 mg/kg/injection, schedule: Q01DX009 (ip), vehicle: other) was 3 of 3 and the survivor count (dose: 100.0 mg/kg/injection, schedule: Q04DX002 (ip), vehicle: Klucel (hydroxypropylcellulose) (HPC)) was 3 of 3. The survivor count (dose: 200.0 mg/kg/injection, schedule: Q01DX009 (ip), vehicle: other) was 3 of 3 and the survivor count (dose: 400.0 mg/kg/injection, schedule: Q04DX002 (ip), vehicle: Klucel (hydroxypropylcellulose) (HPC)) was 3 of 3.

For `O=C(CCCCC(=O)Nc1ccc(C2=NCCN2)cc1)Nc1ccc(C2=NCCN2)cc1`, the T/C (dose: 22.0 mg/kg/injection, schedule: Q01DX009 (ip), vehicle: saline) was 131 % of control, the T/C (dose: 45.0 mg/kg/injection, schedule: Q01DX009 (ip), vehicle: saline) was 137 % of control and the T/C (dose: 177.0 mg/kg/injection, schedule: Q01DX001 (ip), vehicle: saline) was 140 % of control. For the same molecule, the T/C (dose: 265.0 mg/kg/injection, schedule: Q01DX001 (ip), vehicle: saline) was 125 % of control, the T/C [2] was 135 % of control and the survivor count (dose: 400.0 mg/kg/injection, schedule: Q01DX009 (ip), vehicle: saline) was 5 of 6. For the same molecule, the T/C [3] was 128 % of control and the survivor count (dose: 600.0 mg/kg/injection, schedule: Q01DX009 (ip), vehicle: saline) was 2 of 6.
